This note sets out measurements from article PMC3797745.

Amino acid sequences for entries named in this document (tags omitted). A change or cut given only in a name is not applied to a line headed by its entry.
UniProt Q62976: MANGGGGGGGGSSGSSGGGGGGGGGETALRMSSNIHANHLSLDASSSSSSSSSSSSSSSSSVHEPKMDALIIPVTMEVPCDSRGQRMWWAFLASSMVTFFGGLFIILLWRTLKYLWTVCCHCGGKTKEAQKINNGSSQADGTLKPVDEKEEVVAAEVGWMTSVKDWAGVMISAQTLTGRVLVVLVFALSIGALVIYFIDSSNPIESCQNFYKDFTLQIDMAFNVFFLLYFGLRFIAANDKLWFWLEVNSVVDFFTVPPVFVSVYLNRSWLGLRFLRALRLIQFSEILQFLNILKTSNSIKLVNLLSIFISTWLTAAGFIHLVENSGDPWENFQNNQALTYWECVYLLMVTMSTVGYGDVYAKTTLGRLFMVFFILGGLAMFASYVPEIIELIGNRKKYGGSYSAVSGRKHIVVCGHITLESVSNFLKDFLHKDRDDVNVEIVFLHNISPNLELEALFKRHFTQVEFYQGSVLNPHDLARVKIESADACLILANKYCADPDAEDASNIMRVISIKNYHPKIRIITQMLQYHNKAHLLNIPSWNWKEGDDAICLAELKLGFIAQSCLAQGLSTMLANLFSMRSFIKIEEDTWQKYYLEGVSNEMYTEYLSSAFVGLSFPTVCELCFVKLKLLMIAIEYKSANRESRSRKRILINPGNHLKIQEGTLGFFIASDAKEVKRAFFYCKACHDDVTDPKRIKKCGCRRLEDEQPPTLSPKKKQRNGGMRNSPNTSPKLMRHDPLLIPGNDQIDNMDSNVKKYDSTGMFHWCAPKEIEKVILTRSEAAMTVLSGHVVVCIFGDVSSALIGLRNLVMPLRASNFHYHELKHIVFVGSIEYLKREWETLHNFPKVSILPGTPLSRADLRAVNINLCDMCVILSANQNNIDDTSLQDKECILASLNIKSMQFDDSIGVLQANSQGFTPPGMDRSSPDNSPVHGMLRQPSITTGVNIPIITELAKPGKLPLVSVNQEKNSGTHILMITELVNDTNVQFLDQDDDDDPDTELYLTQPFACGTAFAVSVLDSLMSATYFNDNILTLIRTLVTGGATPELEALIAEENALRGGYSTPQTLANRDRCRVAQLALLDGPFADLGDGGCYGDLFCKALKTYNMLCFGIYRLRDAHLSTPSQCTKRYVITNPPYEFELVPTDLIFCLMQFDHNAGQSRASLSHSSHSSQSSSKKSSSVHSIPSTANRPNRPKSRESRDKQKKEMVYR
UniProt O35433: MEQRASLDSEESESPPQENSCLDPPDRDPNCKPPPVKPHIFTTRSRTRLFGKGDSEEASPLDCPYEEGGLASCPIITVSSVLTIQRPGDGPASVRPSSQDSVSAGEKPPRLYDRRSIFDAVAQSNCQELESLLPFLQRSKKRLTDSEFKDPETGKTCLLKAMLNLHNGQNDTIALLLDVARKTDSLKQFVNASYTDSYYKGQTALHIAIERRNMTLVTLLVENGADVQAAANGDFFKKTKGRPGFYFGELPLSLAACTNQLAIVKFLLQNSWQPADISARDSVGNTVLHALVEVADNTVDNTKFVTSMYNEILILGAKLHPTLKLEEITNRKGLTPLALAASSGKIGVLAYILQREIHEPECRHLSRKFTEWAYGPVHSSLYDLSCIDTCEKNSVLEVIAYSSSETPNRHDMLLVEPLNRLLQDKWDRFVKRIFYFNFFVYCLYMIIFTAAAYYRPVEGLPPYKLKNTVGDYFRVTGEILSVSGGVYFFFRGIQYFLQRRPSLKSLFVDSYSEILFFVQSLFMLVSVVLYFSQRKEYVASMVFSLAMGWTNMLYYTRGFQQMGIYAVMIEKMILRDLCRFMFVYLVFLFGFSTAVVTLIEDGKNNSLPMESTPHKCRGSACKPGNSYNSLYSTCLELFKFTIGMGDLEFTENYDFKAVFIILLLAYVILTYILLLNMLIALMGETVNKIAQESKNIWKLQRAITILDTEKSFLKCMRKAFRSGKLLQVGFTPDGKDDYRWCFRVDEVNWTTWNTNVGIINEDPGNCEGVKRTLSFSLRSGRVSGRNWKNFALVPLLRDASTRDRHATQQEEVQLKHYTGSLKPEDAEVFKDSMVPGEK
UniProt Q08460: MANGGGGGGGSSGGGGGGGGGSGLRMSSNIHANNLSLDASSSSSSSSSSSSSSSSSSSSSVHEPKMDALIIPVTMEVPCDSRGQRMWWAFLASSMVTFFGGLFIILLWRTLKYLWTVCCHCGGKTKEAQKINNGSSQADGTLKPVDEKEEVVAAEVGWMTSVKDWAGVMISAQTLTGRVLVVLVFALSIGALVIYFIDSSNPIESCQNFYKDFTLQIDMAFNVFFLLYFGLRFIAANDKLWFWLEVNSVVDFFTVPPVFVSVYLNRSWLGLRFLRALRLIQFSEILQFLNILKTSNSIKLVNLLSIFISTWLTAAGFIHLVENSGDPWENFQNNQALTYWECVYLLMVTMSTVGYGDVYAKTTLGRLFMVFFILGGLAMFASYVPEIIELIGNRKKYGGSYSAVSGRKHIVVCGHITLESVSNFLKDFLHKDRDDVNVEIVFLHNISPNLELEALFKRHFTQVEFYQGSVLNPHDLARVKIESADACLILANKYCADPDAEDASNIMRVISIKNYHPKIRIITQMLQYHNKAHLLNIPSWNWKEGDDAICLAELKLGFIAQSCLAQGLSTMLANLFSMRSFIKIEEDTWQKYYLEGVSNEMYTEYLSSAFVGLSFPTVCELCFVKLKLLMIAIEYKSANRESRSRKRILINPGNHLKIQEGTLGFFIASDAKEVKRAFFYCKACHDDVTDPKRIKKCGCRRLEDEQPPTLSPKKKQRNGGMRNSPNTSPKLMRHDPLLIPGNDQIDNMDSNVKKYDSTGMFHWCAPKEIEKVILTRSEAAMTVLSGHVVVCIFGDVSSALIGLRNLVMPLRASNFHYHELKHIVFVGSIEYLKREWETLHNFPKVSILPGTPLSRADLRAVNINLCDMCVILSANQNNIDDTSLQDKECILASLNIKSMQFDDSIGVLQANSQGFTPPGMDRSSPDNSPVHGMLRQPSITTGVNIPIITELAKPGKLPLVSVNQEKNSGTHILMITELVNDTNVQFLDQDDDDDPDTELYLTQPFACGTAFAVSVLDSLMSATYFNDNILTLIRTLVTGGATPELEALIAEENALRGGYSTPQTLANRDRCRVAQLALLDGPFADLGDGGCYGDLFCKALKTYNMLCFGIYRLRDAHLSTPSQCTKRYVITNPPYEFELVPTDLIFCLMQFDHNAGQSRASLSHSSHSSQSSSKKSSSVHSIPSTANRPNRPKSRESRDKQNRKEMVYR

Assay [1] addresses Slo1 (endogenous BK channel of rat DRG) (rat (endogenous in DRG)) (UniProt Q62976). As to the kind of experiment: co-IP; lysates of DRGs from male adult Wistar rats (50 mM Tris-HCl pH 7.4, 50 mM NaCl, 1% Nonidet P-40); anti-Slo1 or anti-TRPV1 prebound dynabeads protein G, 4 °C, 2 hours; immunoblot with anti-TRPV1 or anti-Slo1; IgG-IP as negative control.
The target of assay [2] is TRPV1 (endogenous, rat DRG) (rat (endogenous in DRG)) (UniProt O35433). The assay is described as above.
A further assay deals with Myc-mSlo1 (UniProt Q08460). Description: co-IP; lysates of Myc-mSlo1 and TRPV1-HA co-transfected HEK293 cells (50 mM Tris-HCl pH 7.4, 50 mM NaCl, 1% Nonidet P-40); anti-myc or anti-HA prebound dynabeads protein G, 4 °C, 2 hours; immunoblot with anti-HA or anti-myc; IgG-IP as negative control.
A further assay deals with TRPV1-HA (rat) (UniProt O35433). The description is as above.

These are yes or no findings as the source states them, for the method shown. Binding seen in cells or lysates may run through a third protein. Some binding calls cover weakened binding; strength is not graded here.

“TRPV1 (endogenous, rat DRG) (from UniProt O35433 1-838)”: in assay [1], the binding entry is “binds”.
Turning to “Slo1 (endogenous BK channel of rat DRG) (from UniProt Q62976 1-1209)”, the binding result in assay [2] is on record as “binds”.
Take TRPV1-HA (from UniProt O35433-1 1-838): the binding entry in the assay with Myc-mSlo1 is “binds”.
Consider Myc-mSlo1 (from UniProt Q08460 1-1209), for which the binding result with TRPV1-HA (rat) was “binds”.
